PubChem BioAssay AID1347076 (National Center for Advancing Translational Sciences (NCATS), 2019)
Screen size: about 400,000 compounds; about 13,000 (3.2%) were called active. The inconclusive results got no clear call from the source; some entries with a clear call stand among them for comparison. The call rests on the fitted dose curve; in most records, active means well fitted cell-killing curve with a large enough effect; inconclusive means small, poorly fitted or top-dose-only effect, or effect the other way; inactive means flat fitted curve, though single readings scatter. Potencies of inconclusive entries are doubtful fits and often do not repeat.

Assay: qHTS assay for MDR1-selective chemotherapeutics: Primary screen using the drug-selected MDR subline cells KB-V1; further: nearly all actives have a fitted effect of over 60% in size
Conditions: KB-V1 MDR cells viability, CellTiter-Glo, 72 h; activity change, negative = cytotoxicity: at 46.1 µM (top of the series)
How it was run: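 Luminescent ATP read-out (CellTiter-Glo, 10 min) measures survival of drug-selected KB-V1 MDR cells after 72 h, 37 degrees C compound exposure. Medium: phenol-red-free DMEM, 10% FBS. Values from fitted concentration-response curves.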
On the % scale 0 is the no-effect control and ±100 the full control effect; potency means the concentration at half of the fitted maximal effect.

Compound | Potency | activity change, negative = cytotoxicity
Cn1c(-c2cccc([N+](=O)[O-])c2)cnc1NCc1cccc([N+](=O)[O-])c1 | inconclusive: 9.2 µM [cytotoxic, partial curve] | 
CC1CCN(C(=O)c2cc(S(=O)(=O)N3CCCCC3)c[nH]2)CC1 | inactive | 
COc1ccc2c(-c3ccc(S(N)(=O)=O)cc3)c(-c3ccc(S(C)(=O)=O)cc3)sc2c1 | inactive | 
CCOC(=O)C1CCCN(C(=O)c2ccc(CS(=O)(=O)Cc3ccccc3C)o2)C1 (configuration not stated) | inconclusive: 13 µM [cytotoxic, partial curve] | 
Cc1cc(NC(=O)CCC(=O)N(C(C(=O)NC(C)(C)C)c2ccccc2Cl)C(C)(C)C)no1 (configuration not stated) | inconclusive: 5.8 µM [cytotoxic, full curve] | 
CCn1c(SCC(=O)NC2(C#N)CCCCC2)nc2ccccc2c1=O | inconclusive: 5.8 µM [cytotoxic, partial curve] | 
Cc1cc(-c2cccs2)c2c(n1)sc1c(=O)[nH]c(=O)[nH]c12 | inconclusive: 0.731 µM [rising, full curve] | 
O=C(COC(=O)c1ccccc1Br)Nc1nnc(-c2ccccc2)o1 | inactive | 
NS(=O)(=O)c1ccc(N/N=C/c2cn(-c3ccccc3)nc2-c2ccccc2)c([N+](=O)[O-])c1 | inconclusive: 29.1 µM [cytotoxic, single point] | 
CCCNC(=O)CSc1nnc(-c2ccccc2Br)n1-c1cccc(C(F)(F)F)c1 | inconclusive: 20.6 µM [cytotoxic, single point] | 
COC(=O)c1cc(OC)c(OC)cc1NC(=O)Cn1nnc(-c2ccccc2Cl)n1 | inconclusive: 16.4 µM [cytotoxic, single point] | 
Cc1ccc(-n2ncc3c(NCc4cccnc4)ncnc32)cc1C | inconclusive: 4.11 µM [cytotoxic, full curve, poor fit] | 
CCN(CC)c1ccc(NC(=O)CCCCCN2C(=O)c3ccccc3C2=O)cc1 | active: 4.61 µM | 
Cc1cc(Cl)ccc1OCCCC(=O)NCc1ccccn1 | inconclusive: 14.6 µM [cytotoxic, single point] | 
O=C(Cn1c(=O)oc2cc(S(=O)(=O)N3CCCC3)ccc21)NCc1ccc(F)cc1 | inconclusive: 29.1 µM [cytotoxic, single point] | 
CN(C(=O)CSc1nc(-c2ccc(C(C)(C)C)cc2)c(C#N)c(=O)[nH]1)C1CCCCC1 | inconclusive: 29.1 µM [rising, single point] | 
CCC(C)Cn1c(O)cc2nn(-c3nc4ccccc4s3)c(=O)c-2c1C (configuration not stated) | inconclusive: 2.91 µM [cytotoxic, full curve] | 
Cc1ccc(OCc2nnc(SCc3cc(=O)[nH]c4ccccc34)o2)cc1 | inconclusive: 23.1 µM [cytotoxic, partial curve, poor fit] | 
COC(=O)N/N=C/c1cn(CC(C)COc2ccccc2)c2ccccc12 (configuration not stated) | inconclusive: 20.6 µM [cytotoxic, partial curve, poor fit] | 
O=C(NC(=S)Nc1c(Cl)cc(Cl)cc1Cl)c1ccccc1 | inconclusive: 16.4 µM [cytotoxic, partial curve, poor fit] | 
NC1=NC[C@H](CC2CCCCC2)N1CCc1cc(C(F)(F)F)cc(C(F)(F)F)c1 | inconclusive: 11.6 µM [rising, partial curve, poor fit] | 
CCOC(=O)Nc1cc(=O)c2ccccc2o1 | inconclusive: 4.11 µM [cytotoxic, full curve, poor fit] | 
COc1ccc(S(=O)(=O)NCCCCOc2ccc(Cl)cc2)cc1 | inactive | 

Individual results from the entries so far.
Potency, Cn1c(-c2cccc([N+](=O)[O-])c2)cnc1NCc1cccc([N+](=O)[O-])c1 is entered as inconclusive: 9.2 µM [cytotoxic, partial curve]
Potency, Cc1ccc(-n2ncc3c(NCc4cccnc4)ncnc32)cc1C is entered as inconclusive: 4.11 µM [cytotoxic, full curve, poor fit]
Potency, CCC(C)Cn1c(O)cc2nn(-c3nc4ccccc4s3)c(=O)c-2c1C (configuration not stated) is entered as inconclusive: 2.91 µM [cytotoxic, full curve]
Potency, O=C(NC(=S)Nc1c(Cl)cc(Cl)cc1Cl)c1ccccc1 is entered as inconclusive: 16.4 µM [cytotoxic, partial curve, poor fit]
Potency, O=C(COC(=O)c1ccccc1Br)Nc1nnc(-c2ccccc2)o1 is entered as inactive

Next part

Compound | Potency | activity change, negative = cytotoxicity
COc1c(S(=O)(=O)N2CCN(C)CC2)ccc(Cl)c1Cl |  | inconclusive: -11.8%
Cc1ccccc1CN1[C@@H]2c3ccccc3C[C@@H]2OCCS1(=O)=O | inactive | 
CNc1cc(=O)n(C)c(=O)n1-c1ccccc1 | inconclusive: 23.1 µM [rising, single point] | 
Cc1ccc(Cn2c(SCC(=O)NCC3CCCO3)nc3c2c(=O)n(C)c(=O)n3C)cc1 (configuration not stated) | inconclusive: 9.2 µM [cytotoxic, partial curve] | 
CSc1ccccc1NC(=O)CN(C)CC(=O)c1[nH]c(C)c(C(C)=O)c1C | inconclusive: 7.31 µM [cytotoxic, partial curve] | 
COC(=O)c1cc(=O)n(Cc2ccc(F)cc2)c(=Nc2ccccc2)s1 | inconclusive: 18.4 µM [cytotoxic, single point] | 
Cc1ccc(S(=O)(=O)N2CCC(C(N)=O)CC2)cc1C(=O)NC1CCCCC1 | inconclusive: 16.4 µM [rising, partial curve, poor fit] | 
O=C(CNC(=O)c1ccc(Cl)cc1Cl)OCN1C(=O)c2ccccc2C1=O | inconclusive: 5.17 µM [cytotoxic, partial curve, poor fit] | 
CCOC(=O)/C(=C\c1ccc(Cl)cc1)c1nc2sc(C)c(C)c2c(=O)[nH]1 | inconclusive: 29.1 µM [cytotoxic, single point] | 
O=C(NCc1cccc(Cl)c1)c1cccc(OC2CCN(C(=O)C3CC3)CC2)c1 | inconclusive: 2.31 µM [cytotoxic, full curve] | 
CCOCCCNCc1cc(Br)ccc1OCc1ccccc1 | inconclusive: 18.4 µM [cytotoxic, partial curve, poor fit] | 
O=c1cc(-c2ccccc2)ss1 | inactive | 
O=S(=O)(c1ccc(NCCOCCO)nc1)N1CCCCC1 | inconclusive: 20.6 µM [rising, single point] | 
O=C(NC(NC(=S)Nc1ccc(Cl)cc1)C(Cl)(Cl)Cl)c1ccco1 (configuration not stated) | inconclusive: 29.1 µM [cytotoxic, single point] | 
CCc1cccc(C)c1NC(=O)Cn1c(=O)n(-c2cccc(C)c2)c(=O)c2c1c1cc(C)ccc1n2C | inconclusive: 29.1 µM [rising, single point] | 
O=C(CNC(=O)c1ccc(Cl)cc1Cl)NCc1ccccn1 | inconclusive: 23.1 µM [cytotoxic, single point] | 
CCSc1nnc(NC(=O)c2cnccn2)s1 | inactive | 
CC1Cc2ccccc2N1C(=O)CSc1nnc(Cn2nnc3ccccc32)n1C (configuration not stated) | active: 18.4 µM | 
COc1ccccc1N1CCN(C(=O)Cn2cnc3sc(C)c(S(=O)(=O)N4CCC(C)CC4)c3c2=O)CC1 | inactive | 
COC(=O)c1cccc(S(=O)(=O)N2CCC(n3nnc4cc(F)ccc43)CC2)c1 | active: 16.4 µM | 
COc1ccc(O)c(/C=N/Nc2nc(Nc3ccccc3)nc(-n3nc(C)cc3C)n2)c1 | inconclusive: 16.4 µM [cytotoxic, partial curve, poor fit] | 
O=C(OCCn1c(=S)sc2ccccc21)c1ccccc1 | inconclusive: 18.4 µM [cytotoxic, partial curve, poor fit] | 
COc1ccccc1N1CCN(C(=O)c2ccc(-c3ccc(Cl)cc3)o2)CC1 | inconclusive: 1.3 µM [cytotoxic, full curve, poor fit] | 

Compound | Potency | activity change, negative = cytotoxicity
CC1CCc2cc(F)ccc2N1C(=O)CCl (configuration not stated) | inconclusive: 29.1 µM [cytotoxic, single point] | 
O=C(CSc1ncnc2ccccc12)N1CCNC1=O | inconclusive: 29.1 µM [rising, single point] | 
C/C(=N\NC(=O)c1nnn(-c2nonc2N)c1-c1ccccc1)c1cccnc1 | inactive | 
CC(C)(C)C(=O)Nc1ccc(Sc2ccc([N+](=O)[O-])cc2)cc1 | active: 20.6 µM | 
Cc1cccc(Cc2c(C)nc3nc(SCC(=O)NCc4ccc(F)cc4)nn3c2C)c1 | inactive | 
CC(Sc1nc2ccccc2o1)C(=O)O (configuration not stated) | inconclusive: 2.91 µM [cytotoxic, partial curve, poor fit] | 
O=C(Nc1ccc(Cl)c(S(=O)(=O)N2CCOCC2)c1)c1cccs1 | inconclusive: 29.1 µM [cytotoxic, single point] | 
O=C(NCc1c(Cl)cccc1Cl)c1ccc2nnsc2c1 | inconclusive: 14.6 µM [cytotoxic, partial curve] | 
CCC1CCc2c(n(C)c3ccccc3c2=O)O1 (configuration not stated) | inconclusive: 20.6 µM [cytotoxic, partial curve, poor fit] | 
CCOc1ccc(OCC(=O)Nc2ccccc2N2CCCC2)cc1 | inconclusive: 16.4 µM [cytotoxic, single point] | 
CCN(CC)CCSc1nnc2c3ccccc3n(Cc3ccccc3)c2n1 | inactive | 
COC(c1ccccc1)c1nnc(CCC(=O)N(C)CCCC2CCCC2)o1 (configuration not stated) | inconclusive: 5.8 µM [cytotoxic, full curve] | 
COc1ccccc1N1CCN(CCN2C(=O)C3CCCCN3C2=O)CC1 (configuration not stated) | inactive | 
CC1CCN(S(=O)(=O)c2ccc3c(c2)N(CC(=O)NCc2cccnc2)C(=O)CS3)CC1 | inactive | 
Cc1ccc2c(=O)cc(C(=O)Nc3c(C(=O)c4ccccc4)oc4ccccc34)oc2c1C | inactive | 
CN(Cc1ncc[nH]1)Cc1cn(-c2ccccc2)nc1-c1ccc2c(c1)OCO2 | inactive | 
COc1cc(O)oc1C=Nc1ccc(C(=O)O)cc1 | active: 23.1 µM | 
O=C(Nc1ccccc1F)C1CCCN1S(=O)(=O)c1ccc(Cl)cc1 (configuration not stated) | inconclusive: 18.4 µM [cytotoxic, single point] | 
Cc1nn(Cc2cccc(C(=O)Nc3ccn(Cc4ccccc4)n3)c2)c(C)c1[N+](=O)[O-] | inconclusive: 10.3 µM [cytotoxic, partial curve, poor fit] | 
Nc1c(N=Nc2ccc([N+](=O)[O-])cc2)c(S(=O)(=O)O)cc2cc(S(=O)(=O)O)c(/C=C/c3ccccc3)c(O)c12 | inconclusive: 18.4 µM [cytotoxic, single point] | 
COCCCNc1nc(-c2ccc(Cl)cc2)nc2ccccc12 | inconclusive: 16.4 µM [cytotoxic, single point] | 
